{"source": "PubChem BioAssay AID1458", "about": "(National Center for Advancing Translational Sciences (NCATS), 2008)", "note": "Among all 210,000 compounds or so, about 5,900 (2.8%) were called active. Roughly 5% stayed inconclusive and do not appear here. Calls come from the whole dose curve; as a rule, active = well fitted activation curve with a large enough effect; inconclusive = small, poorly fitted or top-dose-only effect; inactive = no such curve, though single readings can be large or run the other way. The entries are a selection whose mix differs from that of the whole data set. Where no call is shown, the source filed none. Potency is the fitted concentration of half-maximal effect.", "data": [{"test": "qHTS Assay for Enhancers of SMN2 Splice Variant Expression; note: nearly all actives have a fitted effect of over 55% in size; for activity change, positive = activation: % of control where 0% means no effect", "conditions": "HEK293 SMN2-luciferase splicing reporter, luminescence, 30-36 h; activity change, positive = activation: at 46.1 µM (top of the series) unless noted", "excerpt": "NIH Chemical Genomics Center [NCGC] NIH Molecular Libraries Probe Production centers Network [MLPCN] MLPCN Grant: R03 MH084179-01 Assay Submitter (PI): Elliot Androphy NCGC Assay Overview: Spinal muscular atrophy (SMA) is caused by insufficient levels of the survival motor neuron protein SMN. The SMN locus on chromosome 5q13 contains two inverted copies of SMN called SMN1 and SMN2 which are 99% identical at the amino acid level. SMN1 is a fully functional protein and SMN2 skips exon 7 90% of the time. Skipping of exon 7 produces non-functional protein product. 10% of the SMN2 protein includes exon 7 and is fully functional. In the SMA disease state, mutations in the SMN1 locus are the cause of the disease state. Because only 10% of SMN2 is of the fully functional form, it is not sufficient to overcome the deficiency produced by the loss of the SMN1 product. A therapy that either increase the amount of SMN2 product made or to increase the inclusion of exon 7 has been proposed for the treatment of SMA. We have designed an assay to identify small molecules that can increase the amount of functional SMN2 product by appending a luciferase reporter gene after the native SMN2 gene, such that inclusion of exon 7 in the expressed product places the luciferase sequence in frame, thus generating functional luciferase enzyme.\nNCGC Assay Protocol Summary: This screen utilizes a luciferase reporter gene assay, combining the promoter and splicing based cassettes in tandem with the major portion of the native SMN2 cDNA, and then transfected into HEK293 cells. Compounds that increase luciferase signal presumably enhance expression of the functional SMN2 splice variant. Passaging media contained DMEM w/ glutamax (+phenol red) 10% FCS, 1x pen/strep, 200 ug/ml hygro, 1x sodium pyruvate. Assay media contained DMEM w/ glutamax (-phenol red) 10% FCS, 1x pen strep, 1x pyruvate Sequence, Parameter, Value, Description (1) Cells, […], 2000 cells/well, 1536 TC treated White solid bottom plate (2) Time, 10-12 hours, 37C 5% CO2 (3) Compound, 23 nl, MLSMR Library (4) Control Compound, 23 nL, Sodium butyrate st 4.5mM (final) conc (5) Time, 30-36 hours, 37C 5% CO2 (6) Reagent, 3 ul, One Glo (TM) from Promega (7) Time, 5-15 minutes, Room temp (8) Detector, Viewlux: luminescent read, 60 second integration, high speed 2x binning Keywords: Spinal muscular atrophy, SMA, SMN2, high throughput screening, MLSMR, MLPCN, NIH Roadmap, qHTS and NCGC", "values": [{"smiles": "CCC(C)NC(=O)C1(C)CCC(=O)N1CCc1ccc(OC)c(OC)c1", "note": "(stereo not given)", "activity change, positive = activation": "21.9%"}, {"smiles": "CC(=O)c1cnc2nc(C(F)(F)F)nn2c1C", "activity change, positive = activation": "35.8%"}, {"smiles": "CCCCC(=O)Nc1ccc(NC(=O)c2cccnc2)cn1", "activity change, positive = activation": "47%"}, {"smiles": "CCOC(=O)N/N=C/c1cn(Cc2ccccc2Cl)c2ccccc12", "activity change, positive = activation": "-56.3%"}, {"smiles": "Cc1cc(NS(=O)(=O)c2ccc(NC(=O)c3ccco3)cc2)no1", "activity change, positive = activation": "43.1%"}, {"smiles": "Cc1ccccc1OCC(=O)N1CCCc2ccccc21", "activity change, positive = activation": "43%"}, {"smiles": "Cc1oc(C(C)(C)C)cc1C(=O)N1CCCC1C(=O)O", "note": "(stereo not given)", "activity change, positive = activation": "-88.3%"}, {"smiles": "CC1C(c2ccccc2)N(C)C(c2ccccc2)CC1(O)c1ccccc1", "note": "(stereo not given)", "activity change, positive = activation": "-33.5%"}, {"smiles": "CCOC(=O)Nc1ccc(S(=O)(=O)Nn2cnnc2)cc1", "activity change, positive = activation": "40.8%"}, {"smiles": "Cc1ccc2nc(-c3ccccc3)cn2c1", "Potency": "active: 0.501 µM"}, {"smiles": "CC(C)Cn1c(N)c(C(=O)COC(=O)CCc2nc3ccccc3s2)c(=O)n(C)c1=O", "activity change, positive = activation": "-41.8%"}, {"smiles": "O=C(c1ccc(C(F)(F)F)cc1)N1CCCCC1", "activity change, positive = activation": "30.7%"}, {"smiles": "Cn1cccc1C(=O)N1CCC2(CC1)CCN(c1cccc(-c3ccccc3)c1)CC2", "activity change, positive = activation": "inactive: -53.5%"}, {"smiles": "O=C(CSc1ccc(-c2ccccc2)nn1)c1cccs1", "Potency": "active: 17.8 µM"}, {"smiles": "O=C1CCCc2c1nc(-c1ccccc1)n2O", "activity change, positive = activation": "24%"}, {"smiles": "NC(=O)c1c(NC(=O)C2CCCO2)sc2c1CCCC2", "note": "(stereo not given)", "activity change, positive = activation": "35.4%"}, {"smiles": "Cc1ccc(S(=O)(=O)Nc2ccccc2-c2ccccc2NS(=O)(=O)c2ccc(C)cc2)cc1", "activity change, positive = activation": "-52.5%"}, {"smiles": "CCCCOC(=O)n1c(SCC(=O)N(CC)CC)nc2ccccc21", "activity change, positive = activation": "32.4%"}, {"smiles": "COc1ccc(NC(=O)COc2ccc(/C=N/O)cc2OC)cc1", "activity change, positive = activation": "186%"}, {"smiles": "COc1ccc(S(=O)(=O)NCc2ccccc2Cl)cc1OC", "activity change, positive = activation": "32.3%"}, {"smiles": "O=C(CN1CCC(NC(=O)Cc2ccccc2)CC1)Nc1ccccc1Br", "activity change, positive = activation": "-46.9%"}, {"smiles": "COc1ccc(-c2nn(-c3ccccc3)cc2/C=N/Nc2ccc3ccccc3n2)cc1OC", "activity change, positive = activation": "inactive: -65.9%"}, {"smiles": "c1cncc(-c2nc(-c3ccc4c(c3)OCO4)cs2)c1", "activity change, positive = activation": "104%"}, {"smiles": "COc1ccccc1NC(=O)CSc1ccc(-c2cccs2)nn1", "activity change, positive = activation": "inactive: -38.3%"}, {"smiles": "CCn1cc(C(=O)NC2CCC(C)CC2)c(=O)c2cc(S(=O)(=O)N3CCCCC3)ccc21", "note": "(stereo not given)", "Potency": "active: 12.6 µM"}, {"smiles": "COc1ccc2nc(SCc3ccccc3C)nc(C)c2c1", "Potency": "active: 22.4 µM"}, {"smiles": "COC(=O)c1c(NC(=O)CN2CCN(c3cccc(Cl)c3)CC2)sc(C)c1C", "activity change, positive = activation": "inactive: -27.4%"}, {"smiles": "O=C(Nn1c(SCc2ccc(F)cc2)nc2ccsc2c1=O)c1ccccc1", "activity change, positive = activation": "49.4%"}, {"smiles": "COC(=O)c1cccc(NS(=O)(=O)c2ccc(NC(C)=O)cc2)c1C", "activity change, positive = activation": "inactive: -32.9%"}, {"smiles": "Cc1ccc(NS(=O)(=O)c2ccc3c(c2)c(=O)n(C)c(=O)n3C)cc1F", "activity change, positive = activation": "inactive: -45.1%"}, {"smiles": "COCCOC(=O)C1=C(C)N=C2SCCC(=O)N2C1c1cccc(Br)c1", "note": "(stereo not given)", "activity change, positive = activation": "36.2%"}, {"smiles": "COc1ccccc1/C=C(/C(=O)OCC(=O)Nc1ccccc1C)c1ccccc1", "activity change, positive = activation": "-64.3%"}, {"smiles": "O=C(NCCOc1ccccc1F)c1cc(F)c(F)cc1Cl", "Potency": "active: 2 µM"}, {"smiles": "O=C(COc1cc(Cl)c(Cl)cc1Cl)Nn1cnnc1", "activity change, positive = activation": "43.7%"}, {"smiles": "CCOC(=O)N/N=C\\c1ccc([N+](=O)[O-])s1", "activity change, positive = activation": "inactive: -33.4%"}, {"smiles": "Cc1cc(C)nc(SC2CCCCC2O)n1", "note": "(stereo not given)", "activity change, positive = activation": "44.4%"}, {"smiles": "Cn1c(/C=C/c2ccc([N+](=O)[O-])o2)nc2ccccc2c1=O", "activity change, positive = activation": "-102%"}, {"smiles": "Oc1ccc(Br)cc1-c1cc(-c2ccco2)[nH]n1", "activity change, positive = activation": "34.3%"}, {"smiles": "CCOc1ccc(Nc2nc3cc(S(=O)(=O)N(CC)CC)ccc3o2)cc1", "activity change, positive = activation": "20.1%"}, {"smiles": "COc1ccc(O)c(/C=N/NC(=S)Nc2cccc(S(=O)(=O)N(C)C)c2)c1", "activity change, positive = activation": "inactive: -58.9%"}, {"smiles": "Cc1c(C(=O)NCCC2=CCCCC2)oc2ccc(S(=O)(=O)N3CCOCC3)cc12", "activity change, positive = activation": "inactive: -40.4%"}, {"smiles": "CCCSc1ccc2nc(-c3ccccc3)cn2c1", "activity change, positive = activation": "-84.1%"}, {"smiles": "O=C(C1Cc2ccccc2CN1S(=O)(=O)c1cccs1)N1CCCCC1", "note": "(stereo not given)", "activity change, positive = activation": "34.8%"}, {"smiles": "CCOCCn1c(C(C)C)nc2ccccc21", "activity change, positive = activation": "22.4%"}, {"smiles": "COc1ccc(Oc2nc(SC)nc3ccccc23)cc1", "activity change, positive = activation": "inactive: -84.5%"}, {"smiles": "O=c1c2c(nc3cc(-c4ccc(F)cc4)[nH]n13)CCC2", "Potency": "active: 7.08 µM"}, {"smiles": "CCC(C)C(NC(=O)c1ccc(Cl)cc1)C(=O)O", "note": "(stereo not given)", "activity change, positive = activation": "32.1%"}, {"smiles": "Cc1cc(-c2csc(N)n2)c(C)n1C", "activity change, positive = activation": "inactive: -33.3%"}, {"smiles": "COc1ccc(N2CCN(c3ccc(N4C(=O)COCC4=O)cc3[N+](=O)[O-])CC2)cc1", "activity change, positive = activation": "-43.9%"}, {"smiles": "CC(C)C(NS(=O)(=O)c1cccs1)C(=O)N(C)Cc1ccccc1", "note": "(stereo not given)", "activity change, positive = activation": "38.5%"}, {"smiles": "CN(C)c1ccnc2sc(C(=O)c3ccc(Br)cc3)c(N)c12", "Potency": "active: 22.4 µM"}, {"smiles": "CCCCNc1ncnc2c1cnn2-c1ccc(Cl)cc1", "Potency": "active: 5.01 µM"}, {"smiles": "CCOC(=O)C1CCCN(C(=O)COc2ccccc2O)C1", "note": "(stereo not given)", "activity change, positive = activation": "-48.4%"}, {"smiles": "COc1ccc(CN2C(=S)NC(C)(C)CC2(C)O)cc1", "note": "(stereo not given)", "activity change, positive = activation": "-1.4%"}, {"smiles": "Cc1ccc2nc(-c3ccc(NC(=O)CN(c4ccccc4C)S(C)(=O)=O)cc3)sc2c1", "Potency": "active: 11.2 µM"}]}]}
